These are yes or no findings as the source states them, for the method shown. Binding seen in cells or lysates may run through a third protein. A yes stands for co-enrichment or nearness to the bait. Other partners may have been found.
Legend:
[1] = molecular target: cyclin-dependent kinase (CDK) 8, MAC-tagged (UniProt P49336); test: affinity purification with mass spectrometry + proximity labelling
[2] = molecular target: mediator of RNA polymerase II transcription subunit 13, MAC-tagged (UniProt Q9UHV7); test: as above
[3] = molecular target: Prelamin-A/C, MAC-tagged (human) (UniProt P02545); test: affinity purification with mass spectrometry
[4] = molecular target: Prelamin-A/C, MAC-tagged (human) (UniProt P02545); test: proximity labelling

Sequences of proteins named here, by UniProt entry; tags and fusion partners are left off. Residues count along the entry.
UniProt P49336: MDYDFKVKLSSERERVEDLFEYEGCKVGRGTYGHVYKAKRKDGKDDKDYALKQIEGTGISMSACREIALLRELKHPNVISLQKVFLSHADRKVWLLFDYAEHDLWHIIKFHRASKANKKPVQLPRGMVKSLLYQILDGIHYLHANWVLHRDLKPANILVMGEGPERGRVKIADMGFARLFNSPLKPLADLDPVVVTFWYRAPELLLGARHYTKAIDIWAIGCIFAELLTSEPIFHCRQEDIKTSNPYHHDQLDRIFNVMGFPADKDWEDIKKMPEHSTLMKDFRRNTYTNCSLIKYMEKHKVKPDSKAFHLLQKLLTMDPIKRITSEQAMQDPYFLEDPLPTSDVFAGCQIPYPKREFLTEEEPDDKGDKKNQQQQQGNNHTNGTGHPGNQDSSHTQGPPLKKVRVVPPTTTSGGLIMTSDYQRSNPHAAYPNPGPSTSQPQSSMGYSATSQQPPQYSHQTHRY
UniProt Q9UHV7: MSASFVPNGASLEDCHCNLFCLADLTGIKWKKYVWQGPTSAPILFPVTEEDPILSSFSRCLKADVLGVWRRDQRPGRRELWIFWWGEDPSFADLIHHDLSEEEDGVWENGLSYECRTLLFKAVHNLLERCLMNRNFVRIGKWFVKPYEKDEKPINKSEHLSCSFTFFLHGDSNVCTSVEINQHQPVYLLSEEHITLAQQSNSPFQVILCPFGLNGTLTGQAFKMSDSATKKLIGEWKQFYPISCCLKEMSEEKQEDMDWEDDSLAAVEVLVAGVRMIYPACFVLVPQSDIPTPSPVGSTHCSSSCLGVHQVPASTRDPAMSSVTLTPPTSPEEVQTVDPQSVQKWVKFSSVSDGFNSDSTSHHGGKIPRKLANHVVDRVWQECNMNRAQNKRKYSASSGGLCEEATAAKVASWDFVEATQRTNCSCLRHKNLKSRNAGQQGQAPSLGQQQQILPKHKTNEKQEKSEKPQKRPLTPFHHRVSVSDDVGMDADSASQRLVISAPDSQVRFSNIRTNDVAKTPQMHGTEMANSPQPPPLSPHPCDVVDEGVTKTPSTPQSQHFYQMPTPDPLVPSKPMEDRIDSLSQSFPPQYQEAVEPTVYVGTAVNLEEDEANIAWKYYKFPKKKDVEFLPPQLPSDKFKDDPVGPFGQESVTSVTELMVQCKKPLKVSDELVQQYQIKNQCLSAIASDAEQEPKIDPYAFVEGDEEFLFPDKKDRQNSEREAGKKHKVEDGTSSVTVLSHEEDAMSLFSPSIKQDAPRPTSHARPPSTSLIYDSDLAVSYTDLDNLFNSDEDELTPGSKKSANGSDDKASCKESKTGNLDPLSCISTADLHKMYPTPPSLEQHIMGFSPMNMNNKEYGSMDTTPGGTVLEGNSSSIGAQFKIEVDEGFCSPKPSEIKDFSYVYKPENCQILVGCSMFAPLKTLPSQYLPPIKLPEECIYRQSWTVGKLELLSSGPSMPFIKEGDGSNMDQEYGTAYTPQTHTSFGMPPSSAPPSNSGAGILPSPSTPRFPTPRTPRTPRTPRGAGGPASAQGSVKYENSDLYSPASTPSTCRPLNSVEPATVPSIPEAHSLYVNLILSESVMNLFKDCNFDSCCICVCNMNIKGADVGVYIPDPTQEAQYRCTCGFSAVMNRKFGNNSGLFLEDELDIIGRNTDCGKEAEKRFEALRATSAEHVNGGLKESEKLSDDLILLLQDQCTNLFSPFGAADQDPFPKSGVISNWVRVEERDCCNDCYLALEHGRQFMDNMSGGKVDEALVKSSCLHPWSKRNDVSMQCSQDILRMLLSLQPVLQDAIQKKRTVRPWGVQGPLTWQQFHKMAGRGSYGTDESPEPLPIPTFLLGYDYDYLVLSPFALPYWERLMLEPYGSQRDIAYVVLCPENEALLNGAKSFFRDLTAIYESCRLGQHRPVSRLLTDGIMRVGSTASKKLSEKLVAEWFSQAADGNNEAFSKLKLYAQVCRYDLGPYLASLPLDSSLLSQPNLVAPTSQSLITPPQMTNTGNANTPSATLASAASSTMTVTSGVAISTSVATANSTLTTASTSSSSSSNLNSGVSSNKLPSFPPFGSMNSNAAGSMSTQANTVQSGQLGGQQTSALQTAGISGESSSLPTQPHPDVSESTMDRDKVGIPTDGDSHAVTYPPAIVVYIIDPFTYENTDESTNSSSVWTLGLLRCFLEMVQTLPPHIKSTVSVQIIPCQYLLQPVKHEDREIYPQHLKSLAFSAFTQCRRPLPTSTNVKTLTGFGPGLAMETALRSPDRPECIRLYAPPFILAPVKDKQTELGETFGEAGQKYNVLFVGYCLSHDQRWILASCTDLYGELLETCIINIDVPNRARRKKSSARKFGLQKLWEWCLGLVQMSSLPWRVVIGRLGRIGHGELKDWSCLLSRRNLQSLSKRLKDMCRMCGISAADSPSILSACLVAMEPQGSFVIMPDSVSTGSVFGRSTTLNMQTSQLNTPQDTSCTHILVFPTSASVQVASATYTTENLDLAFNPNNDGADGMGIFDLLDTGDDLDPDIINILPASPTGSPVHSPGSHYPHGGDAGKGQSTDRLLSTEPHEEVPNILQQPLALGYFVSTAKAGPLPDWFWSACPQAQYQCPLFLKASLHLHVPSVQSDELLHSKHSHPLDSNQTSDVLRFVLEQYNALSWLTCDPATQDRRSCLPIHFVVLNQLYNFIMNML
UniProt P02545, residues 1-646: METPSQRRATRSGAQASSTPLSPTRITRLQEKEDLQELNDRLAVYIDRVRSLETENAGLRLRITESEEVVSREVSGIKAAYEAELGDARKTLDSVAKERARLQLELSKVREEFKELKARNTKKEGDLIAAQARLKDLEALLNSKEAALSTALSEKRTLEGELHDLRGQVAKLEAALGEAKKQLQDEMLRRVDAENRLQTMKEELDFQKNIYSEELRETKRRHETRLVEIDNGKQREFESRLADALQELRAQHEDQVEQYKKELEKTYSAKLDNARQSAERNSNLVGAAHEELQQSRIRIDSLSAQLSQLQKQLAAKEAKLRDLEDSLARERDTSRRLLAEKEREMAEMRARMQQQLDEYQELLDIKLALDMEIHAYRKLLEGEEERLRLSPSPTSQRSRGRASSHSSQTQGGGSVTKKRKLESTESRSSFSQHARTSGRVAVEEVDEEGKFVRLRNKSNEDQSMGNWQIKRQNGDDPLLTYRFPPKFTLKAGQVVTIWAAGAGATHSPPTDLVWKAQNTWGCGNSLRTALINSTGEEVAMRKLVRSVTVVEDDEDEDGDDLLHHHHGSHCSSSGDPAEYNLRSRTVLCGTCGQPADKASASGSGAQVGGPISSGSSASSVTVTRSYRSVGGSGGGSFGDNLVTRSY

Row | Binder | binding [1] | binding [2] | binding [3] | binding [4]
1 | MED4 (protein, UniProt Q9NPJ6 1-270) MAASSSGEKEKERLGGGLGVAGGNSTRERLLSALEDLEVLSRELIEMLAISRNQKLLQAGEENQVLELLIHRDGEFQELMKLALNQGKIHHEMQVLEKEVEKRDSDIQQLQKQLKEAEQILATAVYQAKEKLKSIEKARKGAISSEEIIKYAHRISASNAVCAPLTWVPGDPRRPYPTDLEMRSGLLGQMNNPSTNGVNGHLPGDALAAGRLPDVLAPQYPWQSNDMSMNMLPPNHSSDFLLEPPGHNKENEDDVEIMSTDSSSSSSESD | binds | binds | – | –
2 | MED24 (protein, UniProt O75448 1-989) MKVVNLKQAILQAWKERWSDYQWAINMKKFFPKGATWDILNLADALLEQAMIGPSPNPLILSYLKYAISSQMVSYSSVLTAISKFDDFSRDLCVQALLDIMDMFCDRLSCHGKAEECIGLCRALLSALHWLLRCTAASAERLREGLEAGTPAAGEKQLAMCLQRLEKTLSSTKNRALLHIAKLEEASSWTAIEHSLLKLGEILANLSNPQLRSQAEQCGTLIRSIPTMLSVHAEQMHKTGFPTVHAVILLEGTMNLTGETQSLVEQLTMVKRMQHIPTPLFVLEIWKACFVGLIESPEGTEELKWTAFTFLKIPQVLVKLKKYSHGDKDFTEDVNCAFEFLLKLTPLLDKADQRCNCDCTNFLLQECGKQGLLSEASVNNLMAKRKADREHAPQQKSGENANIQPNIQLILRAEPTVTNILKTMDADHSKSPEGLLGVLGHMLSGKSLDLLLAAAAATGKLKSFARKFINLNEFTTYGSEESTKPASVRALLFDISFLMLCHVAQTYGSEVILSESRTGAEVPFFETWMQTCMPEEGKILNPDHPCFRPDSTKVESLVALLNNSSEMKLVQMKWHEACLSISAAILEILNAWENGVLAFESIQKITDNIKGKVCSLAVCAVAWLVAHVRMLGLDEREKSLQMIRQLAGPLFSENTLQFYNERVVIMNSILERMCADVLQQTATQIKFPSTGVDTMPYWNLLPPKRPIKEVLTDIFAKVLEKGWVDSRSIHIFDTLLHMGGVYWFCNNLIKELLKETRKEHTLRAVELLYSIFCLDMQQVTLVLLGHILPGLLTDSSKWHSLMDPPGTALAKLAVWCALSSYSSHKGQASTRQKKRHREDIEDYISLFPLDDVQPSKLMRLLSSNEDDANILSSPTDRSMSSSLSASQLHTVNMRDPLNRVLANLFLLISSILGSRTAGPHTQFVQWFMEECVDCLEQGGRGSVLQFMPFTTVSELVKVSAMSSPKVVLAITDLSLPLGRQVAAKAIAAL | binds | binds | – | –
3 | MED16 (protein, UniProt Q9Y2X0 1-877) MCDLRRPAAGGMMDLAYVCEWEKWSKSTHCPSVPLACAWSCRNLIAFTMDLRSDDQDLTRMIHILDTEHPWDLHSIPSEHHEAITCLEWDQSGSRLLSADADGQIKCWSMADHLANSWESSVGSLVEGDPIVALSWLHNGVKLALHVEKSGASSFGEKFSRVKFSPSLTLFGGKPMEGWIAVTVSGLVTVSLLKPSGQVLTSTESLCRLRGRVALADIAFTGGGNIVVATADGSSASPVQFYKVCVSVVSEKCRIDTEILPSLFMRCTTDLNRKDKFPAITHLKFLARDMSEQVLLCASSQTSSIVECWSLRKEGLPVNNIFQQISPVVGDKQPTILKWRILSATNDLDRVSAVALPKLPISLTNTDLKVASDTQFYPGLGLALAFHDGSVHIVHRLSLQTMAVFYSSAAPRPVDEPAMKRPRTAGPAVHLKAMQLSWTSLALVGIDSHGKLSVLRLSPSMGHPLEVGLALRHLLFLLEYCMVTGYDWWDILLHVQPSMVQSLVEKLHEEYTRQTAALQQVLSTRILAMKASLCKLSPCTVTRVCDYHTKLFLIAISSTLKSLLRPHFLNTPDKSPGDRLTEICTKITDVDIDKVMINLKTEEFVLDMNTLQALQQLLQWVGDFVLYLLASLPNQGSLLRPGHSFLRDGTSLGMLRELMVVIRIWGLLKPSCLPVYTATSDTQDSMSLLFRLLTKLWICCRDEGPASEPDEALVDECCLLPSQLLIPSLDWLPASDGLVSRLQPKQPLRLQFGRAPTLPGSAATLQLDGLARAPGQPKIDHLRRLHLGACPTEECKACTRCGCVTMLKSPNRTTAVKQWEQRWIKNCLAVEGRGPDACVTSRASEEAPAFVQLGPQSTHHSPRTPRSLDHLHPEDRP | binds | binds | – | –
4 | MED6 (protein, UniProt O75586 1-246) MAAVDIRDNLLGISWVDSSWIPILNSGSVLDYFSERSNPFYDRTCNNEVVKMQRLTLEHLNQMVGIEYILLHAQEPILFIIRKQQRQSPAQVIPLADYYIIAGVIYQAPDLGSVINSRVLTAVHGIQSAFDEAMSYCRYHPSKGYWWHFKDHEEQDKVRPKAKRKEEPSSIFQRQRVDALLLDLRQKFPPKFVQLKPGEKPVPVDQTKKEAEPIPETVKPEEKETTKNVQQTVSAKGPPEKRMRLQ | binds | binds | – | –

Further lines, results first:

Row | binding [1] | binding [2] | binding [3] | binding [4] | Binder
5 | – | – | binds | binds | inner nuclear membrane protein Man1 (protein, UniProt Q9Y2U8 1-911) MAAAAASAPQQLSDEELFSQLRRYGLSPGPVTESTRPVYLKKLKKLREEEQQQHRSGGRGNKTRNSNNNNTAAATVAAAGPAAAAAAGMGVRPVSGDLSYLRTPGGLCRISASGPESLLGGPGGASAAPAAGSKVLLGFSSDESDVEASPRDQAGGGGRKDRASLQYRGLKAPPAPLAASEVTNSNSAERRKPHSWWGARRPAGPELQTPPGKDGAVEDEEGEGEDGEERDPETEEPLWASRTVNGSRLVPYSCRENYSDSEEEDDDDVASSRQVLKDDSLSRHRPRRTHSKPLPPLTAKSAGGRLETSVQGGGGLAMNDRAAAAGSLDRSRNLEEAAAAEQGGGCDQVDSSPVPRYRVNAKKLTPLLPPPLTDMDSTLDSSTGSLLKTNNHIGGGAFSVDSPRIYSNSLPPSAAVAASSSLRINHANHTGSNHTYLKNTYNKPKLSEPEEELLQQFKREEVSPTGSFSAHYLSMFLLTAACLFFLILGLTYLGMRGTGVSEDGELSIENPFGETFGKIQESEKTLMMNTLYKLHDRLAQLAGDHECGSSSQRTLSVQEAAAYLKDLGPEYEGIFNTSLQWILENGKDVGIRCVGFGPEEELTNITDVQFLQSTRPLMSFWCRFRRAFVTVTHRLLLLCLGVVMVCVVLRYMKYRWTKEEEETRQMYDMVVKIIDVLRSHNEACQENKDLQPYMPIPHVRDSLIQPHDRKKMKKVWDRAVDFLAANESRVRTETRRIGGADFLVWRWIQPSASCDKILVIPSKVWQGQAFHLDRRNSPPNSLTPCLKIRNMFDPVMEIGDQWHLAIQEAILEKCSDNDGIVHIAVDKNSREGCVYVKCLSPEYAGKAFKALHGSWFDGKLVTVKYLRLDRYHHRFPQALTSNTPLKPSNKHMNSMSHLRLRTGLTNSQGSS
6 | – | – | binds | binds | NUP50 (protein, UniProt Q9UKX7 1-468) MAKRNAEKELTDRNWDQEDEAEEVGTFSMASEEVLKNRAIKKAKRRNVGFESDTGGAFKGFKGLVVPSGGGRFSGFGSGAGGKPLEGLSNGNNITSAPPFASAKAAADPKVAFGSLAANGPTTLVDKVSNPKTNGDSQQPSSSGLASSKACVGNAYHKQLAALNCSVRDWIVKHVNTNPLCDLTPIFKDYEKYLANIEQQHGNSGRNSESESNKVAAETQSPSLFGSTKLQQESTFLFHGNKTEDTPDKKMEVASEKKTDPSSLGATSASFNFGKKVDSSVLGSLSSVPLTGFSFSPGNSSLFGKDTTQSKPVSSPFPTKPLEGQAEGDSGECKGGDEEENDEPPKVVVTEVKEEDAFYSKKCKLFYKKDNEFKEKGIGTLHLKPTANQKTQLLVRADTNLGNILLNVLIPPNMPCTRTGKNNVLIVCVPNPPIDEKNATMPVTMLIRVKTSEDADELHKILLEKKDA
7 | binds | binds | – | – | MED27 (protein, UniProt Q6P2C8 1-311) MADVINVSVNLEAFSQAISAIQALRSSVSRVFDCLKDGMRNKETLEGREKAFIAHFQDNLHSVNRDLNELERLSNLVGKPSENHPLHNSGLLSLDPVQDKTPLYSQLLQAYKWSNKLQYHAGLASGLLNQQSLKRSANQMGVSAKRRPKAQPTTLVLPPQYVDDVISRIDRMFPEMSIHLSRPNGTSAMLLVTLGKVLKVIVVMRSLFIDRTIVKGYNENVYTEDGKLDIWSKSNYQVFQKVTDHATTALLHYQLPQMPDVVVRSFMTWLRSYIKLFQAPCQRCGKFLQDGLPPTWRDFRTLEAFHDTCRQ

Reference: paper doi:10.1101/264788
